PubChem BioAssay AID1117319 (Southern Research Institute, 2015)
The whole screen tested about 260,000 compounds, of which about 1,500 (0.58%) were called active. The inconclusive results got no clear call from the source; some entries with a clear call stand among them for comparison.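 How the source made its calls: active means inhibition above a set limit at one or more doses, reproduced on every date tested; inconclusive means results disagree between test dates, or hit never tested in dose response; inactive means the rest.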

Sequences of proteins named here, by UniProt entry; tags and fusion partners are left off. A change or cut given only in a name is not applied to a line headed by its entry.
UniProt P69720: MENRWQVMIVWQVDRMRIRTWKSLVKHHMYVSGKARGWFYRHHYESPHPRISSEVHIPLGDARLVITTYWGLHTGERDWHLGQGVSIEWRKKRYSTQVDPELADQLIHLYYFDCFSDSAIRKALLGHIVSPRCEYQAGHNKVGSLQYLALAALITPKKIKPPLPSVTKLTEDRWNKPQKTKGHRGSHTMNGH
UniProt P69721: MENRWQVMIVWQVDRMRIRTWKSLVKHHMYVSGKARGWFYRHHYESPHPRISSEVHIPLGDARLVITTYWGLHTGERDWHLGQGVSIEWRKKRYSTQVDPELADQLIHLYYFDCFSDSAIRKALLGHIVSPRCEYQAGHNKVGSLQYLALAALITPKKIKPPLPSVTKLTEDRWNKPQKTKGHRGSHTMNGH
UniProt P69722: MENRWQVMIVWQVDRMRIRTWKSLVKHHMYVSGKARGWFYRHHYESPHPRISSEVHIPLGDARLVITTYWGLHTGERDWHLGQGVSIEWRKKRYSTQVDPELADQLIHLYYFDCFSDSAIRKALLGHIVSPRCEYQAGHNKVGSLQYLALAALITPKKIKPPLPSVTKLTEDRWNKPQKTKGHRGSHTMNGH
UniProt P69723: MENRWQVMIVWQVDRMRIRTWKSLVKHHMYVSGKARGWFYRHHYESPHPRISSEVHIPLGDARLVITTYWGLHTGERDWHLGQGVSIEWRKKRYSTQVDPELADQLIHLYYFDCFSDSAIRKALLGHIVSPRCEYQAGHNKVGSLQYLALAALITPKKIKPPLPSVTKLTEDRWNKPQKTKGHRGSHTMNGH
UniProt Q9HC16: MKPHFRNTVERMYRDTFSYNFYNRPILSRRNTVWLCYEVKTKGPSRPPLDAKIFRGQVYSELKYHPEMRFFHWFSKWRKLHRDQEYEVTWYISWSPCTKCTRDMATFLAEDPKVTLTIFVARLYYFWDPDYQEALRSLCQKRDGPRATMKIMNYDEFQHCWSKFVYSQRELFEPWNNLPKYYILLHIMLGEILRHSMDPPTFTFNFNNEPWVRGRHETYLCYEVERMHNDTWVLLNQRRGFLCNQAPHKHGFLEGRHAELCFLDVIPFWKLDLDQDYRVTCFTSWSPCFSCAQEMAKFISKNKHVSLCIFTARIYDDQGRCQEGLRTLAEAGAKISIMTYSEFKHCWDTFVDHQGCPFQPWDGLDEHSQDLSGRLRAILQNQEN

The compounds below were run against Virion infectivity factor (Human immunodeficiency virus type 1 group M subtype B (isolate BH10)) + Virion infectivity factor (Human immunodeficiency virus type 1 group M subtype B (isolate BRU/LAI)) + Virion infectivity factor (Human immunodeficiency virus type 1 group M subtype B (isolate PCV12)) + Virion infectivity factor (Human immunodeficiency virus type 1 group M subtype B (isolate HXB2)) + DNA dC->dU-editing enzyme APOBEC-3G (Homo sapiens) (UniProt P69720+P69721+P69722+P69723+Q9HC16) (assay: inhibitors of Vif binding to APOBEC3G peptide, primary screen, biochemical, TR-FRET, GST-Vif 1-94, biotin-A3G peptide, dose response retest (AID 1117319;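 further: Vif residues 1-94 fused to GST binding biotinylated APOBEC3G peptide 110-148; 0% = full assay without inhibitor and 100% = GST in place of GST-Vif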)). Conditions: hits give high values.
With `O=[N+]([O-])c1ccc(S(=O)(=O)N2CCSC2c2ccco2)cc1` (stereo not drawn) the inhibition was inconclusive: 58.9%.
`CCC(=N\NC(=O)COc1ccccc1OC)/C(CC)=N/NC(=O)COc1ccccc1OC` was tested, and the inhibition was inconclusive: 54.3%.
`CCOC(=O)N1CCC(N(CCOC)C(=O)Nc2ccc(C)c(C)c2)CC1` was tested, and the inhibition was inconclusive: 33.1%.
With `FC(F)(F)c1ccccc1C1C2=C(Nc3ncnn31)c1ccccc1CCC2` (stereo not drawn) the inhibition was inconclusive: 42.2%.
For `COC(=O)CCCC1=CC2=CC(=O)C(C)(OC(=O)c3cccs3)C(=O)C2=CN1C1CCCC1` (stereo not drawn), the inhibition was inconclusive: 35.7%.
In the case of `CCOC(=O)c1sc2nc(CSc3ccccc3)nc(N3CCCN(C)CC3)c2c1C`, the inhibition was inconclusive: 47.7%.
In the case of `Cc1ccc(/C=N/NC(=O)c2cc3c(ccc4ccccc43)o2)cc1[N+](=O)[O-]`, the inhibition was inconclusive: 33.7%.
In the case of `Cn1ccnc1SCC(=O)NC1CCCCC1`, the inhibition was inconclusive: 50.4%.
For `CCOc1cc(CNc2ccc(N3CCN(C(C)=O)CC3)cc2)cc(Br)c1OC`, the inhibition was inconclusive: 43.6%.
In the case of `Cc1cccc(NC(=S)NC2CC3CCCC(C2)N3Cc2ccccc2)c1C` (stereo not drawn), the inhibition was inconclusive: 34.1%.
With `CC1CCN(c2ccccc2NC(=S)NC(=O)C(C)(C)C)CC1` the inhibition was inactive: -4.59%.
`O=C(c1cc(-c2ccco2)nc2ccccc12)N1CCN(c2ccc(F)cc2)CC1` was tested, and the inhibition was inconclusive: 61.4%.
In the case of `Nc1[nH][nH]c(=O)c1N=Nc1cccc(Cl)c1`, the inhibition was inconclusive: 37.6%.
`C=CCOc1c(OC)cc(/C=N/Nc2cccc(C(=O)O)c2)c(Br)c1Br` was tested, and the inhibition was inconclusive: 35.4%.
With `COc1ccc2c(CC(=O)NNC(=O)c3cccs3)coc2c1` the inhibition was inactive: 5.01%.
With `C=CCN(C(=O)Nc1ccc(F)cc1)C1CC(=O)N(c2ccc(OC)cc2)C1=O` (stereo not drawn) the inhibition was inconclusive: 40%.
For `COCCOc1ccc(C(F)(F)F)cc1NC(=O)COC(=O)Cc1c[nH]c2ccccc12`, the inhibition was inconclusive: 46%.
For `O=C(NCC(c1ccco1)N1CCCC1)c1cn(-c2ccccc2)nc1-c1ccc(F)cc1` (stereo not drawn), the inhibition was inactive: -3.8%.
For `O=C(O)CCc1nn2cnc3sc4c(c3c2nc1=O)CCCC4`, the inhibition was inconclusive: 34.4%.
With `COC(=O)CCCC1=CC2=CC(=O)C(C)(OC(=O)c3cccs3)C(=O)C2=CN1C1CCCCC1` (stereo not drawn) the inhibition was inconclusive: 48%.
With `Cc1nnc(NC(=O)c2cccc(F)c2)s1` the inhibition was inconclusive: 44%.
For `CCOC(=O)/C(C#N)=C1\SS/C(=C(/C#N)C(=O)OCC)S1`, the inhibition was inconclusive: 58.5%.
With `CC(=O)Nc1ccc(S(=O)(=O)NNC(=O)COc2ccc(C)cc2)cc1` the inhibition was inconclusive: 36.4%.
For `O=C(O)c1ccc(Nc2cc(Cl)c3nonc3c2[N+](=O)[O-])cc1`, the inhibition was inconclusive: 33.3%.
In the case of `O=C(O)CCCCCN1C(=O)/C(=C\c2ccc(-c3ccc(Cl)cc3)o2)SC1=S`, the inhibition was inconclusive: 33.9%.
With `O=C(COc1ccccc1[N+](=O)[O-])N/N=C/C=C/c1ccco1` the inhibition was inconclusive: 40.8%.
With `CCn1ccnc1CN(C)Cc1cn(-c2ccc(C)cc2)nc1-c1cccc(C)c1` the inhibition was inconclusive: 44.4%.
In the case of `CN1/C(=C\C=Nc2ccc3ccccc3c2)C(C)(C)c2ccccc21`, the inhibition was inactive: 15.9%.
In the case of `CC(C)N(Cc1cnn(C)c1)Cc1nc(Cc2ccccc2Cl)no1`, the inhibition was inconclusive: 51.3%.
For `NC(=O)COc1ccc(Nc2nnc(-c3ccc(O)cc3)c3ccccc23)cc1`, the inhibition was inconclusive: 43.7%.
`Cn1c(=N)n(CC(=O)c2ccccc2)c2ccccc21` was tested, and the inhibition was inconclusive: 41.8%.
For `CCn1cc(C(=O)O)c(=O)c2cc(F)c(N3CCN(C(=O)Nc4ccccc4)CC3)cc21`, the inhibition was inconclusive: 46%.
With `CC(C)N(C)CCOC(=O)c1ccccc1Br` the inhibition was inconclusive: 55.1%.
`CN1c2ccccc2Sc2cc(N)ccc21` was tested, and the inhibition was inconclusive: 33.3%.
In the case of `CCOC(=O)C1CCN(S(=O)(=O)c2ccc(C)cc2)CC1`, the inhibition was inconclusive: 50%.
In the case of `CC1Cc2ccccc2N1C(=O)C1CCN(S(=O)(=O)c2cccs2)CC1` (stereo not drawn), the inhibition was inconclusive: 39.7%.
For `Cc1ccc(CNC(=O)C2CC(c3cc(C(F)(F)F)cc(C(F)(F)F)c3)=NO2)o1` (stereo not drawn), the inhibition was inconclusive: 55.5%.
`COc1ccccc1N1C(=O)CC(N2CCc3ccccc32)C1=O` (stereo not drawn) was tested, and the inhibition was inconclusive: 33.6%.
For `CCOC(=O)C(NC(=O)c1cccc(Cl)c1)(OCc1ccc(F)cc1)C(F)(F)F` (stereo not drawn), the inhibition was inconclusive: 52%.
In the case of `Cc1cc(C)cc(OCC(O)CN2CCN(Cc3ccc4c(c3)OCO4)CC2)c1` (stereo not drawn), the inhibition was inconclusive: 34.1%.
With `O=S(=O)(c1ccc(Cl)cc1)N1CCC(N2CCOCC2)CC1` the inhibition was inconclusive: 34%.
For `CCN(CC)CC(=O)N1c2ccccc2Oc2c(c(=O)n(C)c(=O)n2C)C1c1cccc([N+](=O)[O-])c1` (stereo not drawn), the inhibition was inconclusive: 47.6%.
`Cc1nc(SCC(=O)c2cccc([N+](=O)[O-])c2)n[nH]1` was tested, and the inhibition was inconclusive: 54.2%.
